Data as given in PubChem BioAssay AID1224830 (NIAID, 2016).

Assay: 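Regulators of TLR4 signalling towards TNF-alpha in macrophage-like cells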 (primary screen)
Cell system: human THP-1 monocytic leukaemia cells, TNF dual-luciferase reporter clone, PMA-differentiated to macrophage-like cells
Reagents: siRNA pool against human genes, 50 nM
Time to read-out: LPS for 4 h, given about 3 days after siRNA transfection
Conditions: bacterial LPS (TLR4 ligand), 10 ng/ml
Measured: 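Ratio of firefly to renilla light, scaled to the plate median and expressed as a robust z-score per replicate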
Scale: TNF reporter robust z-score: higher = stronger TNF reporter response to LPS
Active means: 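Each well counts as active if its z-score is over 2.8 or under -1.5; controls are left without a call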
The whole screen tested about 18,000 reagents; below is an unselected part. About 2,900 of them (16%) were called active. 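Calls are made per well; low scores hint the gene aids the LPS response, high scores that it dampens it.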 Repeated entries: four replicate wells of each siRNA pool.

target | TNF reporter robust z-score | outcome
ALOX12 | -1.76 | active
ALOX12 | -0.04 | inactive
ALOX12 | 1.09 | inactive
ALOX12 | 0.72 | inactive
MORN5 | -0.76 | inactive
MORN5 | 1.34 | inactive
MORN5 | 2.66 | inactive
MORN5 | -0.7 | inactive
NBPF7P | -0.66 | inactive
NBPF7P | -0.28 | inactive
NBPF7P | 0.23 | inactive
NBPF7P | 0.11 | inactive
NDUFAB1 | 0 | inactive
NDUFAB1 | -0.05 | inactive
NDUFAB1 | 0.05 | inactive
NDUFAB1 | 0.65 | inactive
FBLN1 | -0.53 | inactive
FBLN1 | -0.08 | inactive
FBLN1 | 1.29 | inactive
FBLN1 | 0.97 | inactive
SRSF8 | -0.8 | inactive
SRSF8 | -0.54 | inactive
SRSF8 | -0.79 | inactive
SRSF8 | -0.28 | inactive
ELAVL4 | 1.83 | inactive
ELAVL4 | 1.21 | inactive
ELAVL4 | 1.41 | inactive
ELAVL4 | 3.61 | active
USP45 | -1.28 | inactive
USP45 | -1.02 | inactive
USP45 | -0.69 | inactive
C2 | -1.04 | inactive
C2 | -1.38 | inactive
C2 | -1.18 | inactive
C2 | -0.4 | inactive
IFNA8 | -0.72 | inactive
IFNA8 | -0.08 | inactive
IFNA8 | -0.71 | inactive
IFNA8 | -0.23 | inactive
EEF1AKMT2 | 0.65 | inactive
EEF1AKMT2 | 2.02 | inactive
EEF1AKMT2 | 2.64 | inactive
EEF1AKMT2 | 1.32 | inactive

The list goes on; the last 6 above are carried over.
target | TNF reporter robust z-score | outcome
IFNA8 | -0.71 | inactive
IFNA8 | -0.23 | inactive
EEF1AKMT2 | 0.65 | inactive
EEF1AKMT2 | 2.02 | inactive
EEF1AKMT2 | 2.64 | inactive
EEF1AKMT2 | 1.32 | inactive
FBXO28 | 0.63 | inactive
FBXO28 | 0.5 | inactive
FBXO28 | 0.36 | inactive
FBXO28 | 0.73 | inactive
GNRHR | 3.8 | active
GNRHR | 0.71 | inactive
GNRHR | 4.66 | active
GNRHR | 2.2 | inactive
INCA1 | 1.15 | inactive
INCA1 | 5.81 | active
INCA1 | 0.53 | inactive
MGARP | 0.94 | inactive
MGARP | 1.04 | inactive
MGARP | 0.87 | inactive
MGARP | 0.67 | inactive
PIGB | 1.26 | inactive
PIGB | 0.12 | inactive
PIGB | 0.21 | inactive
PIGB | 1.21 | inactive
VEPH1 | -1.79 | active
VEPH1 | -1.22 | inactive
VEPH1 | -0.91 | inactive
VEPH1 | -0.83 | inactive
POU5F1 | 1.94 | inactive
POU5F1 | -1.14 | inactive
POU5F1 | 0 | inactive
POU5F1 | 0.55 | inactive
KRT32 | 0.86 | inactive
KRT32 | -0.22 | inactive
KRT32 | -0.39 | inactive
KRT32 | -0.3 | inactive
UBE2R2 | -0.94 | inactive
UBE2R2 | 0.06 | inactive
UBE2R2 | 0.3 | inactive
UBE2R2 | 1.19 | inactive
ARHGEF6 | -1.4 | inactive
ARHGEF6 | -1.48 | inactive
ARHGEF6 | -1.17 | inactive
ARHGEF6 | -1.39 | inactive
OR6C2 | -0.33 | inactive
OR6C2 | 0.49 | inactive
OR6C2 | 0.63 | inactive
OR6C2 | 1.18 | inactive
CIITA | -0.45 | inactive
CIITA | 0.62 | inactive
CIITA | 0.74 | inactive
CIITA | 1.89 | inactive
RASSF9 | 0.08 | inactive
RASSF9 | 0.67 | inactive
RASSF9 | 0.73 | inactive
RASSF9 | 0.85 | inactive
CSK | 0.12 | inactive
CSK | 0.29 | inactive
CSK | 1.49 | inactive
CSK | 0.16 | inactive
EXOSC5 | -0.95 | inactive
EXOSC5 | 0.41 | inactive
EXOSC5 | -1.12 | inactive
EXOSC5 | -0.25 | inactive
HK1 | -0.42 | inactive
HK1 | -0.44 | inactive
HK1 | -0.69 | inactive
HK1 | -0.2 | inactive
KBTBD12 | -0.07 | inactive
KBTBD12 | 0.39 | inactive
KBTBD12 | 0.68 | inactive
KBTBD12 | 0.71 | inactive
